Values from PubChem BioAssay AID1508597 (Cure First, 2020).
Purpose: 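Survival screen with siRNA in ovarian cancer cells derived from patients, with or without rucaparib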 (primary screen). System: human ovarian carcinoma lines grown from tumours: OCI-P5x (papillary serous) and OCI-C5x (clear cell). Reagent: siRNA pool against human genes, 1.25 pmol siRNA per well. Time to read-out: 72 h or 96 h, depending on the cell culture. Challenge: rucaparib 20 µM (about IC30) or vehicle, present until read-out. Rucaparib or vehicle: Rucaparib. Cell line: OCI-C5x (clear cell). Read-out: 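ATP luminescence measured at 72 or 96 h according to the culture, then normalised and expressed as percent viability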. Direction: viability, normalised: higher = more viable cells remaining. Active means: 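Active when normalised viability falls below 80 percent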. Meaning of the calls: active = viability under 80%; inactive = viability 80% or more.
Shown is a random part of the about 2,100 reagents, in one setting of the screen. 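Calls flag viability under 80% in either arm, not effects specific to rucaparib; the reference for percent is not stated.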 Entries without a mark were called inactive. A reagent listed more than once was tested more than once; the source does not tell the runs apart. Not stated in the record: the 100% reference.

| Gene | technical replicate | viability, normalised (%) |
| --- | --- | --- |
| PTK2B (protein tyrosine kinase 2 beta) | 1 | 69.4 (active) |
| PTK2B (protein tyrosine kinase 2 beta) | 2 | 49 (active) |
| PTK2B (protein tyrosine kinase 2 beta) | 3 | 39.7 (active) |
| DPH7 (diphthamide biosynthesis 7) | 1 | 52.6 (active) |
| DPH7 (diphthamide biosynthesis 7) | 2 | 52.7 (active) |
| DPH7 (diphthamide biosynthesis 7) | 3 | 56.4 (active) |
| GDPD5 (glycerophosphodiester phosphodiesterase domain containing 5) | 1 | 64.5 (active) |
| GDPD5 (glycerophosphodiester phosphodiesterase domain containing 5) | 2 | 57.7 (active) |
| GDPD5 (glycerophosphodiester phosphodiesterase domain containing 5) | 3 | 45.7 (active) |
| CHD4 (chromodomain helicase DNA binding protein 4) | 1 | 48.2 (active) |
| CHD4 (chromodomain helicase DNA binding protein 4) | 2 | 40.9 (active) |
| CHD4 (chromodomain helicase DNA binding protein 4) | 3 | 44.5 (active) |
| OXSR1 (oxidative stress responsive kinase 1) | 1 | 50 (active) |
| OXSR1 (oxidative stress responsive kinase 1) | 2 | 50.1 (active) |
| OXSR1 (oxidative stress responsive kinase 1) | 3 | 52.4 (active) |
| ARID1A (AT-rich interaction domain 1A) | 1 | 57.4 (active) |
| ARID1A (AT-rich interaction domain 1A) | 2 | 66.3 (active) |
| ARID1A (AT-rich interaction domain 1A) | 3 | 67.8 (active) |
| HDAC10 (histone deacetylase 10) | 1 | 46.9 (active) |
| HDAC10 (histone deacetylase 10) | 2 | 39.2 (active) |
| HDAC10 (histone deacetylase 10) | 3 | 48.6 (active) |
| AURKC (aurora kinase C) | 1 | 70.6 (active) |
| AURKC (aurora kinase C) | 1 | 66.5 (active) |
| AURKC (aurora kinase C) | 2 | 57.7 (active) |
| AURKC (aurora kinase C) | 2 | 44.5 (active) |
| AURKC (aurora kinase C) | 3 | 87.8 |
| AURKC (aurora kinase C) | 3 | 43.7 (active) |

Quoted from above (2 entries):
| Gene | technical replicate | viability, normalised (%) |
| --- | --- | --- |
| DPH7 (diphthamide biosynthesis 7) | 3 | 56.4 (active) |
| GDPD5 (glycerophosphodiester phosphodiesterase domain containing 5) | 1 | 64.5 (active) |
